Test results reported in paper PMC9377071.
These are yes or no findings as the source states them, for the method shown. In cells and extracts the contact can be indirect. Some binding calls cover weakened binding; strength is not graded here.

T1: RIPK1 (mouse (endogenous in HT22)) (UniProt Q60855)
T1 sequence: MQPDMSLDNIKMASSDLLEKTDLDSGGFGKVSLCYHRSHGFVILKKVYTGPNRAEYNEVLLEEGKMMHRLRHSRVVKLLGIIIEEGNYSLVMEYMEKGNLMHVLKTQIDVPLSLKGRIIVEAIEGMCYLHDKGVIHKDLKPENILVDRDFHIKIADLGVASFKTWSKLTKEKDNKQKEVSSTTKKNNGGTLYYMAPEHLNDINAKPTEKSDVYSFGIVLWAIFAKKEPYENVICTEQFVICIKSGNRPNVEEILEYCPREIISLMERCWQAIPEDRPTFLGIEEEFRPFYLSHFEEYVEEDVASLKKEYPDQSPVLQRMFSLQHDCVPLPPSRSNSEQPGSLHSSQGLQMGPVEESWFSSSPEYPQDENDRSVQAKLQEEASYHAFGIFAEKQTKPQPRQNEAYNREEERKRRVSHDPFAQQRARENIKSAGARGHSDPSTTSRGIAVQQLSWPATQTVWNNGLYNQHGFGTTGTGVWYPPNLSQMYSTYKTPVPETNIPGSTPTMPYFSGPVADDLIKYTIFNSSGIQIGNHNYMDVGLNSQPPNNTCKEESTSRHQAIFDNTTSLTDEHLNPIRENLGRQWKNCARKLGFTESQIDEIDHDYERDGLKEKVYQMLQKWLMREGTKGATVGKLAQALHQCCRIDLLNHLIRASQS

T2: RIPK1 (mouse (endogenous in HT22)), Q60855
T2 chain: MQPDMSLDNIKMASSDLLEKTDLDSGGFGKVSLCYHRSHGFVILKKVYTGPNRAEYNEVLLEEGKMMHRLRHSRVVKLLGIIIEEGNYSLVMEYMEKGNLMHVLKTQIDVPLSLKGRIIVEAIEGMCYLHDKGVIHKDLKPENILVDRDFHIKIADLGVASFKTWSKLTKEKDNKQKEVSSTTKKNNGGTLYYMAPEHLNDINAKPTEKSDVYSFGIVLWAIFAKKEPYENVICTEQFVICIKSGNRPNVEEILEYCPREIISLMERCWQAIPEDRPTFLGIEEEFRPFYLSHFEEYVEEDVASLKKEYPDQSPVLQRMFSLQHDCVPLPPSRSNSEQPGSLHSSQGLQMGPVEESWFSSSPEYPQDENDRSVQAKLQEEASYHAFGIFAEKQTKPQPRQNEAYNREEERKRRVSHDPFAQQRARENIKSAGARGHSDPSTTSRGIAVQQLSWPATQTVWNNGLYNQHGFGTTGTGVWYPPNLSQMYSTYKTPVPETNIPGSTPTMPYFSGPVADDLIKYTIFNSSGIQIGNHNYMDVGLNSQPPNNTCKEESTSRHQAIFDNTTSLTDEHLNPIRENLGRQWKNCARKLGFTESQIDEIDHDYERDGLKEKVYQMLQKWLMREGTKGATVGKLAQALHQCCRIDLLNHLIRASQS


Tests used:
[1] = molecular target: T1, RIPK1 (mouse (endogenous in HT22)); assay: co-IP; HT22 cells transfected with vector or TauP301S for 48 h; lysed in NP-40 buffer; lysate incubated overnight with RIPK1 antibody, then Protein G-agarose 3 h; beads washed six times; immunoblot
[2] = molecular target: T2, RIPK1 (mouse (endogenous in HT22)), …; assay: as above; settings: remark: other sources report otherwise

binding [1] | binding [2] | Binder
binds |  | mixed lineage kinase domain-like protein (protein, UniProt Q9D2Y4 1-472) MDKLGQIIKLGQLIYEQCEKMKYCRKQCQRLGNRVHGLLQPLQRLQAQGKKNLPDDITAALGRFDEVLKEANQQIEKFSKKSHIWKFVSVGNDKILFHEVNEKLRDVWEELLLLLQVYHWNTVSDVSQPASWQQEDRQDAEEDGNENMKVILMQLQISVEEINKTLKQCSLKPTQEIPQDLQIKEIPKEHLGPPWTKLKTSKMSTIYRGEYHRSPVTIKVFNNPQAESVGIVRFTFNDEIKTMKKFDSPNILRIFGICIDQTVKPPEFSIVMEYCELGTLRELLDREKDLTMSVRSLLVLRAARGLYRLHHSETLHRNISSSSFLVAGGYQVKLAGFELSKTQNSISRTAKSTKAERSSSTIYVSPERLKNPFCLYDIKAEIYSFGIVLWEIATGKIPFEGCDSKKIRELVAEDKKQEPVGQDCPELLREIINECRAHEPSQRPSVDGRSLSGRERILERLSAVEESTDKKV
 | binds | RIPK3, Q9QZL0 1-486 (protein) MSSVKLWPTGASAVPLVSREELKKLEFVGKGGFGVVFRAHHRTWNHDVAVKIVNSKKISWEVKAMVNLRNENVLLLLGVTEDLQWDFVSGQALVTRFMENGSLAGLLQPECPRPWPLLCRLLQEVVLGMCYLHSLNPPLLHRDLKPSNILLDPELHAKLADFGLSTFQGGSQSGSGSGSGSRDSGGTLAYLDPELLFDVNLKASKASDVYSFGILVWAVLAGREAELVDKTSLIRETVCDRQSRPPLTELPPGSPETPGLEKLKELMIHCWGSQSENRPSFQDCEPKTNEVYNLVKDKVDAAVSEVKHYLSQHRSSGRNLSAREPSQRGTEMDCPRETMVSKMLDRLHLEEPSGPVPGKCPERQAQDTSVGPATPARTSSDPVAGTPQIPHTLPFRGTTPGPVFTETPGPHPQRNQGDGRHGTPWYPWTPPNPMTGPPALVFNNCSEVQIGNYNSLVAPPRTTASSSAKYDQAQFGRGRGWQPFHK
